The other results are listed elsewhere or left out.

Protein sequences, listed by entry. Tags and fused reporters are not part of them.
UniProt Q0JBA9, entry or part of it: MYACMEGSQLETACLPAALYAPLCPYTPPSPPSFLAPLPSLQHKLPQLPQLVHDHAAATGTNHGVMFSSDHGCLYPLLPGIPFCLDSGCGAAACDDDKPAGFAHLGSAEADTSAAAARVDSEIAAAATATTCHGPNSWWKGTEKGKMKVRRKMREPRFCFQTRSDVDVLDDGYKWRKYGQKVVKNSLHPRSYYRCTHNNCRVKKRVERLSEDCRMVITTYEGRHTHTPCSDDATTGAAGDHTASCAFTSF

This assay addresses OsWRKY34 (Oryza sativa, UniProt Q0JBA9 1-250). Kind of assay: protein-binding microarray (RPBM); PBS, 2% BSA, 51.3 ng/ul salmon testes DNA, 50 uM zinc acetate, 200 nM TF, 25 C, 1 h; high values mean tight binding. To be noted: protein: recombinant; tags: N-terminal polyhistidine and DsRed monomer fusion (pET32a); label: CyDye5-dUTP incorporated in the synthesized complementary strand; 3' TTTTT single-stranded linker to array surface; dsDNA, one strand shown. Summed up:
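Transcription factors, each fused N-terminally to a polyhistidine tag and DsRed, were expressed in E. coli BL21-CodonPlus and purified on Ni–NTA. A custom Agilent array was made double-stranded by primer extension with Cy5-dUTP and blocked with 2% BSA. It was incubated with 200 nM protein in PBS, 2% BSA, salmon testes DNA and 50 µM zinc acetate at 25 °C for 1 h, then washed. The binding signal is per-feature fluorescence intensity (arbitrary units) read on an Axon 4000B scanner.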
For the sequence “GTGTTCATTGATATTGCTTACTTCACTGTTTGTGACGCTACGGAGTCACCTAGTGCAG”, the binding signal is 11600 fluorescence intensity (a.u.).
Take “TGCACTATCACTTCATTTGTAGTTTGCACAGTTTGTGTTTCGGAGTCACCTAGTGCAG”: the binding signal is 9100 fluorescence intensity (a.u.).
Turning to “GTCCACTGTGCAGCTCCCGTGCAGGCGTTCCGCTTTGATGCGGAGTCACCTAGTGCAG”, the binding signal was 9380 fluorescence intensity (a.u.).
Then “TCCTACAGTACGCATTCCCACCGCACCGCCATTCGATCTGCGGAGTCACCTAGTGCAG”, with 8550 fluorescence intensity (a.u.); and “GAACTGGTCAGGGAAAATATCCTCCACTTTTGGTTCGCTCCGGAGTCACCTAGTGCAG”, with 8190 fluorescence intensity (a.u.); and “TTTGGTGGCATGGGTGGGGTCTCATCACCGTGGAGTTATTCGGAGTCACCTAGTGCAG”, with 10100 fluorescence intensity (a.u.).
For “CCATCCTCGTAGCCAGCGTTGACCGGGCCCGTGGCGGTCACGGAGTCACCTAGTGCAG”, the binding signal is 14600 fluorescence intensity (a.u.).
As for “TGTAACTGCACCAATTACTCCTGTTTTACTCCTTATTAATCGGAGTCACCTAGTGCAG”, the binding signal was 9130 fluorescence intensity (a.u.).
Consider “CATTGGGAGGCGGGCTATGTACAAACTGGAGATCTCACATCGGAGTCACCTAGTGCAG”, for which the binding signal is 9410 fluorescence intensity (a.u.).
Regarding “CCTTTGCTGCTAATTGTACATGGTTATGGTATGGTATGTTCGGAGTCACCTAGTGCAG”, the binding signal was 8030 fluorescence intensity (a.u.).
Turning to “ATCATACGCTAATAGCTTTTTGTTTTTCGTGACCTTACTTCGGAGTCACCTAGTGCAG”, the binding signal is 11800 fluorescence intensity (a.u.).
As to “CTACTACTCTACTAGTCCTACCCCTACCCTACCCTACGGCCGGAGTCACCTAGTGCAG”, the binding signal is 8280 fluorescence intensity (a.u.).
For “GACATGAACTCCGTGTACCTTTATTTTTGCTTGTGAACATCGGAGTCACCTAGTGCAG”, the binding signal was 13500 fluorescence intensity (a.u.).
Regarding “GTGGCTGGCGTCTCCCGTCTACTACCGTATTTCTCCTTTCCGGAGTCACCTAGTGCAG”, the binding signal is 9810 fluorescence intensity (a.u.).
The result for “CAGCGACTATAAATACGGCCTCGACTCCGGACACCTTCTTCGGAGTCACCTAGTGCAG” reads 8480 fluorescence intensity (a.u.); that for “GAAGTACAACCCAACGCACACCTTTTCAGTTGTATTAAGACGGAGTCACCTAGTGCAG”, 8110 fluorescence intensity (a.u.); that for “GAGAGGATGGAGGTGGATGAGGGAGAGGGGCGGGAGACCGCGGAGTCACCTAGTGCAG”, 9460 fluorescence intensity (a.u.).
On to “AGATCACAAACATGAAATCCACTATTGTCTATCTCAACATCGGAGTCACCTAGTGCAG”, for which the binding signal is 9210 fluorescence intensity (a.u.).
The result for “GGATGGGCATGGAGGAGGTGCAGTGAGTGGAGCTGGAGGACGGAGTCACCTAGTGCAG” reads 8730 fluorescence intensity (a.u.).
For “GACTGCTCTCTCCGGCCTTCGACGAGCATTCCTGCCGTTCCGGAGTCACCTAGTGCAG”, the binding signal was 9070 fluorescence intensity (a.u.).
For the sequence “CGTACCGCTCCCATCCACGGAAACCGCATGCGCCATCATCCGGAGTCACCTAGTGCAG”, the binding signal is 8410 fluorescence intensity (a.u.).
As for “TTATGAGGGTAAGTTTGTATTTGTCATATTTGGGTTGCTACGGAGTCACCTAGTGCAG”, the binding signal was 8110 fluorescence intensity (a.u.).
On to “TGCTGTTACGCTCTCTTGAGTGTGGTTCTATTGCTTTCGTCGGAGTCACCTAGTGCAG”, for which the binding signal was 8900 fluorescence intensity (a.u.).
On to “CCTGCTCCGCCGTTCTCCTCGTCGCCCAATGCTGCGGCGCCGGAGTCACCTAGTGCAG”, for which the binding signal is 10300 fluorescence intensity (a.u.).
As for “GATATTCAATCACCACATATGCCTTGTTTATTAGTATTACCGGAGTCACCTAGTGCAG”, the binding signal is 8630 fluorescence intensity (a.u.).
The result for “CTGACAATCACACACACGACAATGCACGCACGCGCACAACCGGAGTCACCTAGTGCAG” reads 8390 fluorescence intensity (a.u.); that for “CTCTCGACGGCTCTCTCCTCTCCGTCTGTCTATAGCTACTCGGAGTCACCTAGTGCAG”, 10500 fluorescence intensity (a.u.); that for “CTTTCTTCTGTGTGGTGGGTTTTAGCCGGTTTCTCGCAATCGGAGTCACCTAGTGCAG”, 18400 fluorescence intensity (a.u.).
As for “GAGTATAGCTGGGTGGGGTAGTAACCCATTCGGAAAACCCCGGAGTCACCTAGTGCAG”, the binding signal was 9710 fluorescence intensity (a.u.).
Then “TCCTACGTTTTCTCAATCCTGTGATTCAAAAGGGCCCTTACGGAGTCACCTAGTGCAG”, with 8790 fluorescence intensity (a.u.); and “CTATCTTCTCCATTCATCCCATACTCTCCCACCCACGTTCCGGAGTCACCTAGTGCAG”, with 9210 fluorescence intensity (a.u.).
For “GGCCCACACCACCTGGATACCGAAACGCCCTCGGGACGATCGGAGTCACCTAGTGCAG”, the binding signal was 8100 fluorescence intensity (a.u.).
Consider “AAAGTACTGTTAGATATTCATGGTCAAGCCTCGTTTTTTTCGGAGTCACCTAGTGCAG”, for which the binding signal is 9720 fluorescence intensity (a.u.).
As for “TAATTGGGGTGATGTGGCTAATTCTCAAAGCAGTTTTATACGGAGTCACCTAGTGCAG”, the binding signal is 9290 fluorescence intensity (a.u.).
With “GTTTCCTTCTCTTTCCTCATTTATTTACTTGCCACATCATCGGAGTCACCTAGTGCAG”, the binding signal is 10500 fluorescence intensity (a.u.).
Take “CTCTCTTTCTTCTTTGTGTCTTTGTTTCTTTTCTTTTTTCCGGAGTCACCTAGTGCAG”: the binding signal is 14700 fluorescence intensity (a.u.).
For “GGATGGTCGATTCTTCATCCTTTCGTTTTGCTTGCTGTGGCGGAGTCACCTAGTGCAG”, the binding signal was 9840 fluorescence intensity (a.u.).
Consider “CCATACGCAACAACAATGTTAATTTCTGTTTTATTTCCTTCGGAGTCACCTAGTGCAG”, for which the binding signal is 10400 fluorescence intensity (a.u.).
Turning to “TATGCTCGGTGTGTTTATCATTGGTGTGATTGTGTATAGTCGGAGTCACCTAGTGCAG”, the binding signal was 10300 fluorescence intensity (a.u.).
The result for “ACTTTTCGCTTTTTATATTTGCATAATTTTTTTCAATAAGCGGAGTCACCTAGTGCAG” reads 8150 fluorescence intensity (a.u.).
The result for “AGCCCAAAACCACTACACTTTTTTTTTTGTCCCTGATGCTCGGAGTCACCTAGTGCAG” reads 10800 fluorescence intensity (a.u.); that for “TTAATATTTATGCATTTATAGTCTTATGTTTTGACCAGCACGGAGTCACCTAGTGCAG”, 8500 fluorescence intensity (a.u.).
